Results: patent publication US20250163404A1, “PHAGE DISPLAY-BASED CELL-PENETRATING PEPTIDE DISCOVERY PLATFORM AND METHODS OF MAKING AND USING THE SAME” (Eli Lilly and Company, priority 2022, published 2025)
At least one peptide structure holds a part that was inferred or is arguable (an end, a ring closure or a residue). Ends that are not written are not given here.

Columns and labels:
N2a cells = experiment: Penetration of peptide on phage by confocal microscopy, N2a cells; type: cell-based
SH-SY5Y cells = experiment: Penetration of peptide on phage by confocal microscopy, SH-SY5Y cells; type: cell-based

In the case of SSRPPIVTP [NNJA_15], the “co-localization with LAMP1 staining” value (N2a cells) was “no co-localization with LAMP1 staining”, the “penetration level in cytoplasmic domain (anti-M13 antibody)” value (N2a cells; 1 hr. at 37° C.) was “modest level” and the “co-localization with LAMP1 staining” value (SH-SY5Y cells) was “no co-localization with LAMP1 staining”. For the same sequence, the “penetration level in cytoplasmic domain (anti-M13 antibody)” value (SH-SY5Y cells; 1 hr. at 37° C.) was “modest level”.
